Results of single-concentration screens

Values are the deposited “Percent Effect”, in %.
The record does not define 0% and 100%; most values in the screen are far below 50% and negative numbers occur (in some assays of this library far below -100).
This is an unselected part of the compounds tested.
Two or more numbers in one place are separate tests of the same structure; such repeats can differ widely.

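Whole-cell growth test on Mycobacterium tuberculosis, read after 3 days in glucose-containing 7H9 medium; the read-out is not stated. Concentration: 50 µM. The record gives no direction; compounds that gave an IC50 in retests scored well above the rest, so higher reads as more growth inhibition. About 69,000 compounds were tested under these conditions; 1.1% (about 760) showed 50% or more at least once.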

SMILES,Percent Effect
Cc1cc(C)c(CNC(=O)NCCNc2ncccn2)c(=O)[nH]1,-8.755 and -17.39
COC(=O)c1ccc(C2SC(C)=Nc3c2c(=O)[nH]n3C2CCCC2)cc1 (centres undefined),8.003
CC(C)c1nccn1C1CCCN(C(=O)CCc2cscn2)C1 (centres undefined),-17.65
O=C(CN1CCCCC1=O)N1CCC2(CC1)[C@H](O)C[C@@H]2O,-10.3
Cc1ccc(O)c(C(=O)N2CCC(CNC(=O)OC(C)(C)C)C2)c1 (centres undefined),-8.361
CCOC(=O)N1CCN(C(=O)c2snnc2-c2ccccc2)CC1,2.856 and 0.08983
CCn1nc(CC(C)C)cc1C(=O)N1CCN([C@H]2CCCC[C@@H]2O)CC1,-1.853
CN(C)C(=O)N1CC[C@@H](O)[C@@H]1Cc1cnn(C)c1,24.07 and -3.405
COCCCS(=O)(=O)N1CCN(C(=O)CO)CC1,-11.25
CCOc1ncccc1CNC(=O)Nc1ccc(OC)c(OC)c1,17.72
CCc1ncc(CN2CCC(Oc3ccccc3OC)CC2)cn1,-15.75
CC(C)c1nc(O)c2nnn(C[C@H]3CCCN(Cc4ccsc4)C3)c2n1,25.87
O=C(O)C(F)(F)F.[H][C@@]12CCN(c3ncc(F)cn3)[C@]1([H])CC[C@H](C(=O)NCc1ccco1)O2,5.895
CCN(C)C(=O)c1ccc2c(c1)C(c1nc[nH]n1)CN2S(C)(=O)=O (centres undefined),-28.06
O=C(O)C(F)(F)F.[H][C@@]12CO[C@H](CNS(C)(=O)=O)[C@]1([H])CCN(CCc1ccccc1)C2,-28.81
NCc1cn(CC2CCCN(C(=O)NCCc3ccc(F)cc3)C2)nn1 (centres undefined),-2.223
O=c1c2cc3c(cc2nnn1Cc1ccccc1)OCCO3,19.91
Cc1ccc(NC(=O)N2CCN(C(=O)CC3CCCC3)CC2)s1,22.7
Cc1cccc(C2CCCN(S(=O)(=O)c3cccnc3)C2)n1 (centres undefined),-25.16
O=C(O)C(F)(F)F.[H][C@@]12C[C@H](c3nc(C)no3)CN(C3CCC3)[C@]1([H])CCO2,-22.49
O=C(O)C(F)(F)F.O=C(O)C(F)(F)F.c1cc(CN2CCC3(CC2)COC(COCC2CC2)C3)ccn1 (centres undefined),-16.18
CC(=O)N1CCCC(C(=O)c2cnn(-c3ccc(F)cc3)c2N)C1 (centres undefined),-26.06
COc1cc(C#N)ccc1OC12CCCN(CC1)C2 (centres undefined),29.69
NCC(c1ccccc1)N1CCc2sccc2C1 (centres undefined),16.57 and 17.5
CC(C)(C)S(=O)(=O)c1ccc(N2CCC(n3cccn3)CC2)cn1,-13.14
CCn1ncc(-c2nc3c[nH]n(CC)c-3n2)c1C,-4.231
CCSCCC(C)N(C)C(=O)c1cc(C)on1 (centres undefined),-14.84
CCC(C)(NCc1ncc(C(C)C)o1)c1nccs1 (centres undefined),32.52 and 1.635
O=C(O)C(F)(F)F.[H][C@@]12CN(c3cc(OC)ncn3)C[C@H](C(=O)NCC3CC3)[C@]1([H])CCO2,-1.584
COCCN1CCOCC2(C1)CN(C(=O)c1conc1C)CCO2.O=C(O)C(F)(F)F (centres undefined),-0.1775
CCc1nc(C2CCCN2Cc2ccn(C)c(=O)c2)no1 (centres undefined),-10.35
O=C1CC(c2ccsc2)c2c(n(C3CCOCC3)[nH]c2=O)N1 (centres undefined),12.61
Cc1ncsc1CN1C[C@@H](O)[C@](O)(CNC(=O)c2ccccn2)C1,13.71
CCC1CN(CC(=O)NCCN2CCCCCC2)c2ccccc2S1 (centres undefined),66.18
N#Cc1nccnc1NC1CCN(c2ccccc2Br)C1 (centres undefined),9.187 and 4.524
[H][C@]12CC[C@]([H])(CN(C3CCOCC3)C1)N(Cc1cnc(SC)nc1)C2,-6.029
Cc1cccc(C2(NC(=O)CCCn3cncn3)CCCC2)c1,-3.295 and 10.49
OC1(CNCCN2CCCc3ccccc32)CCNC1 (centres undefined),32.16 and 17.71
Cc1ccc(C)c(NC(=O)Cc2c(C)nc3c(c2C)c(=O)[nH]n3C)c1,-12.66
CN1CC2(CCN(CCOCCO)CC2)CC(c2ccccc2)C1=O (centres undefined),-14.65
CCOC(C)C(=O)NS(=O)(=O)c1cccc2cc(C)cnc12 (centres undefined),3.214
CC(C)n1ncc2cc(NC(=O)N3CCC(CO)CC3)cnc21,1.516 and -4.672
Cl.O=C(Nc1ccccn1)c1cncc(C2CCNCC2)n1,19.18
CN1C(=O)CCN(C(=O)C2CC=CC2)c2ccccc21,11.45 and 2.933
Cc1cnn(C2CN(CC(=O)NCCc3ccccc3)C2)c1,0.9877
COc1ncccc1CN1CCN(c2noc(C(C)C)n2)CC1,1.798
CC(=O)N1CCN(c2cnccn2)CC(CO)C1 (centres undefined),-1.121
COc1ccc(N2CCOCC3(CCCN(c4cnccn4)C3)C2)cc1 (centres undefined),6.616
O=C(O)C(F)(F)F.O=C1NC2(CCN(c3ncccn3)CC2)CC1c1cccnc1 (centres undefined),-3.136
CCC1CN(C(=O)c2ccccc2C#N)CCN1C(C)C (centres undefined),-2.725 and -3.126
O=C(c1ccon1)N1CCc2ncnc(NCc3cccnc3)c2CC1,9.471
CN(C)CCOCc1nnc2n1CCN(CC1CC1)CC2.O=C(O)C(F)(F)F.O=C(O)C(F)(F)F,-17.44
Cn1cc(-c2nnn3c2COC(CNCC2CCOCC2)C3)cn1 (centres undefined),3.869
O=C(O)C(F)(F)F.O=C(O)C(F)(F)F.[H][C@@]12CN(Cc3ccncc3)C[C@]1([H])C(=O)N(Cc1ccc(OC)cc1)C2,-13.96
COC(=O)C(O)C1CCN(Cc2cccc(-n3cccn3)c2)CC1 (centres undefined),10.6
CC(C)Nc1ncnc2c1CCN(C(=O)c1ccc[nH]1)CC2,-1.155
O=C(NCCn1ccnc1)c1ccn(-c2ccccc2)n1,-16.45
CC(O)CN1CCC(CNCc2cccc(Br)c2)CC1 (centres undefined),-5.618
CCOC(=O)Cn1ccc2cc(NC(=O)N3CCSCC3)ccc21,-39.45
Cn1cc(CN2CCC3(CC2)CC(Nc2nccs2)CO3)cn1.O=C(O)C(F)(F)F (centres undefined),-44.49
Cc1cc(C)cc(NC(=O)c2cnc(N3CCN(C)CC3)nc2C)c1,8.357
CC(SCCNS(=O)(=O)c1cnn(C)c1)c1cccc(F)c1 (centres undefined),6.851
CCCn1cc(-c2cc(-c3cc(CC)n[nH]3)c(C#N)c(N)n2)c(C)n1,6.339
Cc1cc(CC(=O)NCC(O)COc2ccc(F)c(F)c2)n[nH]1 (centres undefined),-3.929 and 0.06326
Cc1nn2cc(CCNC(=O)c3cc(C(C)C)no3)nc2s1,-22.4
CCn1cnnc1CNC(=O)N(C)Cc1c(F)cccc1Cl,25.87 and -6.079
O=C(O)C(F)(F)F.[H][C@]12C[C@@H](C(=O)NCCc3cccs3)CO[C@@]1([H])CCN(C1CCC1)C2,4.905
O=C1CN(Cc2nnc(-c3ccccc3Br)o2)CCN1,-0.4929 and -9.722
Cc1ccccc1NC(=O)NCC(C)(O)c1cccs1 (centres undefined),-11.93
CCC[C@H]1CN(C(=O)CCn2ccccc2=O)C[C@@H]1NS(C)(=O)=O,-12.12
O=C(O)C(F)(F)F.[H][C@@]12CCN(c3cccnc3)C[C@]1([H])CN(C(=O)CC1CC1)C2,4.488
O=C(O)C(F)(F)F.O=S1(=O)NCC2(CCNCC2)COc2ccccc21,-24.13 and 1.403
CCn1cc(C(=O)NCc2ccc3c(c2)OCO3)c(C)n1,24.02
CC(C)N(C(=O)Cn1nnnc1CCc1ccccc1)C(C)C,-33.98
Cl.O=C(Nc1cccc(C(=O)OCC2CCCN2)c1)c1ccoc1 (centres undefined),1.913 and 10.61
O=C(NCCCO)c1nnsc1-c1ccccc1,-67.93
[H][C@]12CCN(C(=O)NC3CCCC3)CC[C@@]1([H])S(=O)(=O)N(CC)C2,-8.041

8 of the entries, repeated:

CCCn1cc(-c2cc(-c3cc(CC)n[nH]3)c(C#N)c(N)n2)c(C)n1 read 6.339%.
Cl.O=C(Nc1cccc(C(=O)OCC2CCCN2)c1)c1ccoc1 (centres undefined) read 1.913% and 10.61%.
Cc1cc(C)c(CNC(=O)NCCNc2ncccn2)c(=O)[nH]1 read -8.755% and -17.39%.
CCc1nc(C2CCCN2Cc2ccn(C)c(=O)c2)no1 (centres undefined) read -10.35%.
COCCCS(=O)(=O)N1CCN(C(=O)CO)CC1 read -11.25%.
O=C(O)C(F)(F)F.O=C(O)C(F)(F)F.c1cc(CN2CCC3(CC2)COC(COCC2CC2)C3)ccn1 (centres undefined) read -16.18%.
O=C(O)C(F)(F)F.[H][C@@]12CN(c3cc(OC)ncn3)C[C@H](C(=O)NCC3CC3)[C@]1([H])CCO2 read -1.584%.
Cn1cc(-c2nnn3c2COC(CNCC2CCOCC2)C3)cn1 (centres undefined) read 3.869%.

From ChEMBL document CHEMBL3988442, “University of Dundee, Small-Polar-MMV Screening Library” (2021).